Laboratory results as given in patent US20040024191.

Sequences of proteins named here, by UniProt entry; tags and fusion partners are left off.
UniProt O35690, whole entry: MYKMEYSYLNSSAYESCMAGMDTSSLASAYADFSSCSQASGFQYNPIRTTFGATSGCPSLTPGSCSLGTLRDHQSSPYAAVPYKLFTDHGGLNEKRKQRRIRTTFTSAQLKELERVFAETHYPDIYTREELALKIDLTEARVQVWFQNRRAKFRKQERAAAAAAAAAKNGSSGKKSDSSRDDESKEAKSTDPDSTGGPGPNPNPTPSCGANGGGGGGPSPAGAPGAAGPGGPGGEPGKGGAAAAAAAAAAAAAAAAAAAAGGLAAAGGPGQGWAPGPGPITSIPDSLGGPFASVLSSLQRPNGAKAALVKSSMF
UniProt Q62066, whole entry: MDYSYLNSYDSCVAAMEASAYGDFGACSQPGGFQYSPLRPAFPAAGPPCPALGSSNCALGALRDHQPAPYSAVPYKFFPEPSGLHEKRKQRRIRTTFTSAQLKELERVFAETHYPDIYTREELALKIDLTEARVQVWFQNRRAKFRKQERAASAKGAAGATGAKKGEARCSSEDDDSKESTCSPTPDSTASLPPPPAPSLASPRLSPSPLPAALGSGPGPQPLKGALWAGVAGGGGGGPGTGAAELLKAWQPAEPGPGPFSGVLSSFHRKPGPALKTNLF

Experiments:
[1] = target: Phox2b (full-length, transfected) (UniProt O35690); experiment: activity in cells; conditions: 1xII-CAT in HeLa; protein in cells; protein details: pRc/CMV; only the site is given
[2] = target: Phox2a (full-length, transfected) (UniProt Q62066); experiment: activity in cells; conditions: 1xII-CAT in HeLa; protein in cells; protein details: pRc/CMV; only the site is given

Sequence: CCGCTAGACAAATGTGATTACC (double strand) [PBS2 (domain II)]
- activity on this sequence [1]: active
- activity on this sequence [2]: active
